Measured values taken from patent US9545461B2, “Anti-microbial peptides and methods of use thereof” (priority 2011, dated 2017).
At least one peptide structure holds a part that was inferred or is arguable (an end, a ring closure or a residue). Ends that are not written are not given here.

Columns and labels:
[1] = tested on: Enterococcus faecalis (ATCC 51188); experiment: Antimicrobial spectrum analysis; type: cell-based; conditions: 200 μg/mL, 3 h
[2] = tested on: Staphylococcus epidermidis (ATCC 12228); experiment: Antimicrobial spectrum analysis; type: cell-based; conditions: 200 μg/mL, 3 h
[3] = tested on: P. aeruginosa clinical isolate 6206; experiment: Bacterial motility by real-time phase-contrast microscopy; type: cell-based, Pseudomonas aeruginosa; conditions: 200 ug/ml, 37° C., 3 h
[4] = tested on: Escherichia coli (ATCC 25922); experiment: Antimicrobial spectrum analysis; type: cell-based; conditions: 200 μg/mL, 3 h
[5] = tested on: Candida albicans (ATCC 90028); experiment: Antimicrobial spectrum analysis; type: cell-based; conditions: 200 μg/mL, 3 h
[6] = tested on: Staphylococcus aureus (ATCC 29213); experiment: Antimicrobial spectrum analysis; type: cell-based; conditions: 200 μg/mL, 3 h
[7] = tested on: P. aeruginosa strain 6206; type: cell-based, Pseudomonas aeruginosa; conditions: 110 μM, 3 h (FIG. 3A)
[8] = tested on: Serratia marcescens (ATCC 43862); experiment: Antimicrobial spectrum analysis; type: cell-based; conditions: 200 μg/mL, 3 h

RAIGGGLSSVGGGSSTIKY [19mer, RAIGGGLSSVGGGSSTIKY]
activity (in words) [1]: neither the 19- nor the 17mer peptide was active
activity (in words) [2]: neither the 19- nor the 17mer peptide was active
swimming motility of peptide-treated bacteria [3]: lost capacity for swimming motility
activity (in words) [4]: neither the 19- nor the 17mer peptide was active
activity (in words) [5]: neither the 19- nor the 17mer peptide was active
activity (in words) [6]: neither the 19- nor the 17mer peptide was active
bactericidal activity [7]: 98.4%
activity (in words) [8]: neither the 19- nor the 17mer peptide was active
